From paper PMC6639259 come the findings set out here.

Protein sequences, listed by entry. Tags and fused reporters are not part of them. Lines headed by an entry give the natural chain unless they say otherwise; changes in a name come on top.
UniProt Q7JJ13: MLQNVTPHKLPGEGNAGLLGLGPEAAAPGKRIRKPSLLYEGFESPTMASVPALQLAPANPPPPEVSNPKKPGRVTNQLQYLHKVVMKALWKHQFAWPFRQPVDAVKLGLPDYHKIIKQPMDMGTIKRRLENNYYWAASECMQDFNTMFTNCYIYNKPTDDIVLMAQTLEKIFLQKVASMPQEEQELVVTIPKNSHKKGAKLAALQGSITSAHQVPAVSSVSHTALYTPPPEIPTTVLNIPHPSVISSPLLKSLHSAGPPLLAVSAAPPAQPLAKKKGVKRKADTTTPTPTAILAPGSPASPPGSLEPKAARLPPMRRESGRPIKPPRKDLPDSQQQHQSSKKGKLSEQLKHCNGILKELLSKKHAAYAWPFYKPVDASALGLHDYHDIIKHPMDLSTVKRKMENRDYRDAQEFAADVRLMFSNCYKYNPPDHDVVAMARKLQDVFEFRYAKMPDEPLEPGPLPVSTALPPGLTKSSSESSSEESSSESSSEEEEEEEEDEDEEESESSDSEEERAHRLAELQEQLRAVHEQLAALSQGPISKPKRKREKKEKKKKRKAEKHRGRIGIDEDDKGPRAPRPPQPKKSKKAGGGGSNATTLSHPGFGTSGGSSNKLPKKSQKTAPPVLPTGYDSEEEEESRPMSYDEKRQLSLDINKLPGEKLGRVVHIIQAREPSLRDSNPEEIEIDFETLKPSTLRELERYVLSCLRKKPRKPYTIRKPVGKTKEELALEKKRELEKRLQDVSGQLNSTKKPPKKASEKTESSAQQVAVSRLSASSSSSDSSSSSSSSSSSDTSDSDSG

No constants are given. Whether binding was seen depends on the method and setting. For part of these data: A result given as binding can be weak or reduced; the word gives no strength.

What all share (assay): two-hybrid; DUALhybrid Kit; pLexA-N bait and pGAD-HA prey vectors in yeast; ß-galactosidase assay (blue: interaction, white: no interaction)
Assay [1] addresses pLexA-BRD2 (truncated BRD2 bait lacking the bromodomains) (mouse) (UniProt Q7JJ13).
Assay [2] has as its target pLexA-ET (ET domain of a BET protein) (mouse).
For assay [3], the target named is pLexA-mB (region containing the motif B of a BET protein) (mouse).

B1: NIPBL prey clone (amino acids 212–449) (domain or fragment, UniProt Q6KCD5 212-449)
chain: AGGLRNIHDNKVSGPLSGNSANHHADNPRHGSSDDYLHMVHRLSSDDGDSSTMRNAASFPLRSPQPVCSPAGSDGTPKGSRPPLILQSQSLPCSSPRDVPPDILLDSPERKQKKQKKIKLGKDEKDQNEKAAMYDIISSPTKDSTKLTLRLSRVRSSDMDQQDDMLSGMENSNVSENDIPFNVQYPGQTSKTPITPQDVNRPLNAAQCLSQQEQTAFLPANQVPVLQQNTSVATKQPQ
For the molecule B1, the binding entry in assay [1] is given as “binds”; in assay [2] it was “binds”; in assay [3], “no binding”.
